Test results from article PMC5400277.
No constants are given. Whether binding was seen depends on the method and setting. For some assays here: Binding seen in cells or lysates may run through a third protein. Sequences can lack the tags named with a protein. Some entries that bind do so weakly or less than the wild type. Values belong to the binder of their own block, whether it stands above or below them.

Experiments:
[1] = compound: NO … TRACT (NTT), yeast two-hybrid fusion (UniProt Q9SVY1); assay: two-hybrid; DNA-binding domain fusion (SPT in the LexA vector pBTM116c-D9) against Gal4 activation domain fusions (ARRs in pACT2); yeast strain L40ccaU; SD-Gluc medium lacking Leu, Trp, His with 3 mM 3-amino-1,2,4-triazole; scored after 5 days at 25°C
[2] = target: T1, SPATULA (SPT), yeast two-hybrid fusion (Arabidopsis) (UniProt Q9FUA4); assay: as above
T1 sequence: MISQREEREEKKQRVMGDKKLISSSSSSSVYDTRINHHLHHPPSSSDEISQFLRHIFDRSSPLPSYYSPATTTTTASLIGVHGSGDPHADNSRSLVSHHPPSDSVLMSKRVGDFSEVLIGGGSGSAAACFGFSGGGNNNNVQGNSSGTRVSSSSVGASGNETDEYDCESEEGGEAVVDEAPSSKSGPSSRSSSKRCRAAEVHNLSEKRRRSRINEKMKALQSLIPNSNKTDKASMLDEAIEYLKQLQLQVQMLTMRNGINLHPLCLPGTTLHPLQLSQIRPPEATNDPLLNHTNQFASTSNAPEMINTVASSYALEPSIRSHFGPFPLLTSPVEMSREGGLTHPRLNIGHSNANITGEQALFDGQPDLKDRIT

[3] = target: T2, SPATULA (SPT), BiFC fusion (Arabidopsis) (UniProt Q9FUA4); assay: split reporter; BiFC with C- and N-terminal YFP fusion constructs (pYFC43, pYFN43) in young N. tabacum leaves; YFP signal assayed 3 days after infiltration by confocal microscopy
T2 sequence: T1 sequence

binding [1]: binds
B1: NO … TRACT (NTT), yeast two-hybrid fusion (protein, UniProt Q9SVY1 1-383)
chain: MTDPYSNFFTDWFKSNPFHHYPNSSTNPSPHPLPPVTPPSSFFFFPQSGDLRRPPPPPTPPPSPPLREALPLLSLSPANKQQDHHHNHDHLIQEPPSTSMDVDYDHHHQDDHHNLDDDDHDVTVALHIGLPSPSAQEMASLLMMSSSSSSSRTTHHHEDMNHKKDLDHEYSHGAVGGGEDDDEDSVGGDGGCRISRLNKGQYWIPTPSQILIGPTQFSCPVCFKTFNRYNNMQMHMWGHGSQYRKGPESLRGTQPTGMLRLPCYCCAPGCRNNIDHPRAKPLKDFRTLQTHYKRKHGIKPFMCRKCGKAFAVRGDWRTHEKNCGKLWYCICGSDFKHKRSLKDHIKAFGNGHGAYGIDGFDEEDEPASEVEQLDNDHESMQSK

binding [2]: no binding
B2: ARR21, yeast two-hybrid fusion (protein, UniProt Q9LYP5 1-613)
chain: MASAQSFYNQSSVLKINVMVVDDDHVFLDIMSRMLQHSKYRVIAVDDPKKALSTLKIQRDNIDLIITDYYMPGMNGLQLKKQITQEFGNLPVLVMSSDTNKEEESLSCGAMGFIPKPIHPTDLTKIYQFALSNKRNGKSTLSTEQNHKDADVSVPQQITLVPEQADVLKTKRKNCSFKSDSRTVNSTNGSCVSTDGSRKNRKRKPNGGPSDDGESMSQPAKKKKIQWTDSLHDLFLQAIRHIGLDKAVPKKILAFMSVPYLTRENVASHLQKYRIFLRRVAEQGLYSMLSDRGIDSMFRQTHIKEPYFNYYTPSTSWYDTRLNNRSFYSKPVHGFGQSKLLSTTREPVCFNQMPYNYMNRSSTYEPHRIGSGSNLTLPIQSNLSFPNQPSQNEERRSFFEPPVMANKIAQTSQVLGFGQLGPSAISGHNFNNNMTSRYGSLIPSQPGPSHFSYGMQSFLNNENVTYNPQPPANATTQPNLDELPQLENLNLYNDFGNTSELPYNISNFQFDDNKHQQGEADPTKFELPAAKFSTELNHEDDGDWTFVNINQGQSNGETSNTIASPETNTPILNINHNQNQGQDVPEFNDWSFLDPQELVDDDFMNSLFNNDMN

binding [3]: no binding
B3: ARABIDOPSIS RESPONSE REGULATOR 1 (ARR1), BiFC fusion (protein, UniProt Q940D0 1-690)
chain: MMNPSHGRGLGSAGGSSSGRNQGGGGETVVEMFPSGLRVLVVDDDPTCLMILERMLRTCLYEVTKCNRAEMALSLLRKNKHGFDIVISDVHMPDMDGFKLLEHVGLEMDLPVIMMSADDSKSVVLKGVTHGAVDYLIKPVRMEALKNIWQHVVRKRRSEWSVPEHSGSIEETGERQQQQHRGGGGGAAVSGGEDAVDDNSSSVNEGNNWRSSSRKRKDEEGEEQGDDKDEDASNLKKPRVVWSVELHQQFVAAVNQLGVEKAVPKKILELMNVPGLTRENVASHLQKYRIYLRRLGGVSQHQGNLNNSFMTGQDASFGPLSTLNGFDLQALAVTGQLPAQSLAQLQAAGLGRPAMVSKSGLPVSSIVDERSIFSFDNTKTRFGEGLGHHGQQPQQQPQMNLLHGVPTGLQQQLPMGNRMSIQQQIAAVRAGNSVQNNGMLMPLAGQQSLPRGPPPMLTSSQSSIRQPMLSNRISERSGFSGRNNIPESSRVLPTSYTNLTTQHSSSSMPYNNFQPELPVNSFPLASAPGISVPVRKATSYQEEVNSSEAGFTTPSYDMFTTRQNDWDLRNIGIAFDSHQDSESAAFSASEAYSSSSMSRHNTTVAATEHGRNHQQPPSGMVQHHQVYADGNGGSVRVKSERVATDTATMAFHEQYSNQEDLMSALLKQEGIAPVDGEFDFDAYSIDNIPV

binding [2]: no binding
B4: ARR20, yeast two-hybrid fusion (protein, UniProt Q9LZJ8 1-426)
chain: MSVFSNILDENSRNLRNEIPCDDGIASPINDDDEEFLTKSNRVLLVGADSNSSLKNLMTQYSYQVTKYESGEEAMAFLMKNKHEIDLVIWDFHMPDINGLDALNIIGKQMDLPVVIMSHEYKKETVMESIKYGACDFLVKPVSKEVIAVLWRHVYRKRMSKSGLDKPGESGTVESDPDEYDDLEQDNLYESNEEGSKNTCDHKEEKSPTKKPRMQWTPELHHKFEVAVEKMGSLEKAFPKTILKYMQEELNVQGLTRNNVASHLQKYRQSSKKTCTPQEPQEDFVWGNAGPDVTLAASKTLLSSHATPSYLINNQAAPRGSYFMNNIPYPSTSCLPVNNNNCFMTNPSTYIDQFQHQLQQQQQHQQYQSTLNSISAMLTKQESRHVPSSAMENSEPLMIYNSNLPFGIDECFPPAGFNIFDQIGHN

binding [2]: no binding
B5: ARR18, yeast two-hybrid fusion (protein, UniProt Q9FGT7 1-635)
chain: MEFGSTEDGRHDKFPVGMRVLAVDDNPTCLRKLEELLLRCKYHVTKTMESRKALEMLRENSNMFDLVISDVEMPDTDGFKLLEIGLEMDLPVIMLSAHSDYDSVMKGIIHGACDYLVKPVGLKELQNIWHHVVKKNIKSYAKLLPPSESDSVPSASRKRKDKVNDSGDEDDSDREEDDGEGSEQDGDGSGTRKKPRVVWSQELHQKFVSAVQQLGLDKAVPKKILDLMSIEGLTRENVASHLQKYRLYLKKIDEGQQQNMTPDAFGTRDSSYFQMAQLDGLRDFTAARQIPSSGLLSRSHLTKLQPPMYSSINLQGMNSSSFIQQGHHQNSSNSANPFGTYHSTLSPRIQNVNLFQRTSSPLEPLQFPRSKSYIGDFKGLGDRAIGGSFLDTCMPFGSSSTSLPSASTNPLMLQANYTQPLHIASDGIQPCIEGTPSNSASPNISFQGLSRFPGHSWQGNLNTTRFPPSSLPLNLAFLPDQVTCAGNNLGDCTSLVSAENPGGEMQCDPQLLGGFMQNVNPLGGQKWEQQNCTMLNNPFGNIEYPLPADNMVFRDNNSTRSKGLDESLMNPIDNSQEYVGKATTMLDPEMKSGKPENDNQHDVFDDIMNEMMKQEENNGMVPVATRFGFDSFPPP
